Laboratory results taken from patent publication US4745101A, “Novel peptide having dentinal fluid transport-stimulating activity” (Teikoku Hormone Mfg. Co., Ltd., priority 1985, dated 1988).
At least one peptide structure holds a part that was inferred or is arguable (an end, a ring closure or a residue). Where no end group is shown, it is not given here.

Test system: dentinal fluid transport (DFT) to the odontoblastic tubules in the dentin of rats
Test: DFT-stimulating activity: migration of acriflavine hydrochloride to the odontoblastic tubules in the dentin after i.v. administration
Format: in vivo, rat
Design: key to Rating: positive (+) when the migration was suffiient; negative (-) when the migration was insufficient or failed
Details: for Number of rats where DFT occurred fully/total number of rats tested / Rating: intravenous, 5-week old rats, 16 minutes

“GVIAWELQHNQPGRKDSTAG [Peptide of the invention]” was tested, and the “Number of rats where DFT occurred fully/total number of rats tested” value (dosage 10 ng/kg) was 7/8, the Rating (dosage 10 ng/kg) was “(+)” and the “Number of rats where DFT occurred fully/total number of rats tested” value (dosage 100 ng/kg) was 8/8. For the same sequence, the Rating (dosage 100 ng/kg) was “(+)”, the “Number of rats where DFT occurred fully/total number of rats tested” value (dosage 1,000 ng/kg) was 8/8 and the Rating (dosage 1,000 ng/kg) was “(+)”. The DFT-stimulating activity (dose of 30 ng/kg (i.v.) in rats) was “showed DFT-stimulating activity”.
